Data as given in PubChem BioAssay AID1224828 (NIAID, 2016).
Screen: 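Knock-downs that increase or decrease LPS-induced p65 nuclear translocation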 (primary screen). System: mouse RAW264.7 G9 macrophage reporter cells (GFP-p65, Tnf promoter-mCherry). Reagent: siRNA pool against mouse genes, 100 nM. Timing: 2 days siRNA transfection, then 40 min LPS before fixation. Treatment: LPS (Salmonella minnesota R595) at 10 ng/ml. Read-out: 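Imaged p65 nuclear translocation ratio, normalised to the plate median, converted to robust z-scores and averaged across two replicates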. Direction: p65 translocation robust z-score: higher = more nuclear NF-kappaB p65 after LPS than the plate median; nuclear/cytoplasmic p65 ratio: higher = more nuclear NF-kappaB p65. Call rule: 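Active if robust z is above 3.3 (negative regulators) or below -1.56, the Tlr4 control median (positive regulators); activity score 50 or more; control wells not called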. Calls: active = hit (p65 shift raised or lowered); inactive = no clear change.
Here is an unselected part of about 17,000 reagents tested. Of all reagents, 762 (4.5%) are marked active. 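Active calls include both raised and lowered p65 entry, mostly lowered; wells with fewer than 50 cells lack a z-score.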 Raw values vary from plate to plate and are shown uncorrected. Unmarked entries are inactive.

Against Or8d23 (olfactory receptor family 8 subfamily D member 23) [SID315479963], the values are p65 translocation robust z-score 0.89; nuclear/cytoplasmic p65 ratio, rep 1 = 1.63; nuclear/cytoplasmic p65 ratio, rep 2 = 1.29; low cell count flag enough cells to score.
Depletion of Hpn (hepsin) [SID315467289] resulted in: p65 translocation robust z-score -0.11; nuclear/cytoplasmic p65 ratio, rep 1 = 1.78; nuclear/cytoplasmic p65 ratio, rep 2 = 1.39; low cell count flag enough cells to score.
With knock-down of Ddi2 (DNA-damage inducible protein 2) [SID315473953], the record shows p65 translocation robust z-score -0.31; nuclear/cytoplasmic p65 ratio, rep 1 = 1.35; nuclear/cytoplasmic p65 ratio, rep 2 = 1.45; low cell count flag enough cells to score.
For Epha5 (Eph receptor A5) [SID315466524] the deposit lists p65 translocation robust z-score -1.35; nuclear/cytoplasmic p65 ratio, rep 1 = 1.34; nuclear/cytoplasmic p65 ratio, rep 2 = 1.33; low cell count flag enough cells to score.
Against Pros1 (protein S (alpha)) [SID315468716], the entry reads p65 translocation robust z-score -0.52; nuclear/cytoplasmic p65 ratio, rep 1 = 1.41; nuclear/cytoplasmic p65 ratio, rep 2 = 1.35; low cell count flag enough cells to score.
With knock-down of Fkbp3 (FK506 binding protein 3) [SID315470749], the record shows p65 translocation robust z-score 0.69; nuclear/cytoplasmic p65 ratio, rep 1 = 1.45; nuclear/cytoplasmic p65 ratio, rep 2 = 1.53; low cell count flag enough cells to score.
Depletion of Mrgpra3 (MAS-related GPR, member A3) [SID315479069] came out at: p65 translocation robust z-score -0.39; nuclear/cytoplasmic p65 ratio, rep 1 = 1.73; nuclear/cytoplasmic p65 ratio, rep 2 = 1.52; low cell count flag enough cells to score.
Vash1 (vasohibin 1) [SID315479394] gave p65 translocation robust z-score 0.94; nuclear/cytoplasmic p65 ratio, rep 1 = 1.79; nuclear/cytoplasmic p65 ratio, rep 2 = 1.54; low cell count flag enough cells to score.
Or4b1c (olfactory receptor family 4 subfamily B member 1C) [SID315480591] scored p65 translocation robust z-score 0.72; nuclear/cytoplasmic p65 ratio, rep 1 = 1.66; nuclear/cytoplasmic p65 ratio, rep 2 = 1.56; low cell count flag enough cells to score.
Knock-down of Prickle3 (prickle planar cell polarity protein 3) [SID315471271] came out at: p65 translocation robust z-score -2.28 (active); nuclear/cytoplasmic p65 ratio, rep 1 = 1.35; nuclear/cytoplasmic p65 ratio, rep 2 = 1.22; low cell count flag enough cells to score.
With knock-down of Kdg4 (alpha-ketoglutarate dehydrogenase subunit 4) [SID315472233] the results were p65 translocation robust z-score -0.23; nuclear/cytoplasmic p65 ratio, rep 1 = 1.76; nuclear/cytoplasmic p65 ratio, rep 2 = 1.55; low cell count flag enough cells to score.
Crisp2 (cysteine-rich secretory protein 2) [SID315469811] showed p65 translocation robust z-score -0.31; nuclear/cytoplasmic p65 ratio, rep 1 = 1.36; nuclear/cytoplasmic p65 ratio, rep 2 = 1.92; low cell count flag enough cells to score.
Knock-down of Hnrnph1 (heterogeneous nuclear ribonucleoprotein H1) [SID315471951] came out at: nuclear/cytoplasmic p65 ratio, rep 1 = 1.27; nuclear/cytoplasmic p65 ratio, rep 2 = 1.11; low cell count flag fewer than 50 cells per well; well left out of scoring.
Rabep1 (rabaptin, RAB GTPase binding effector protein 1) [SID315471173] scored p65 translocation robust z-score 1.36; nuclear/cytoplasmic p65 ratio, rep 1 = 1.56; nuclear/cytoplasmic p65 ratio, rep 2 = 1.36; low cell count flag enough cells to score.
Silencing of Ifit2 (interferon-induced protein with tetratricopeptide repeats 2) [SID315467384] resulted in: nuclear/cytoplasmic p65 ratio, rep 1 = 0.969; nuclear/cytoplasmic p65 ratio, rep 2 = 1.16; low cell count flag fewer than 50 cells per well; well left out of scoring.
For Fanca (Fanconi anemia, complementation group A) [SID315466621], the values are p65 translocation robust z-score 0.51; nuclear/cytoplasmic p65 ratio, rep 1 = 1.61; nuclear/cytoplasmic p65 ratio, rep 2 = 1.37; low cell count flag enough cells to score.
After knock-down of Atp4b (ATPase, H+/K+ exchanging, beta polypeptide) [SID315465553] the results were p65 translocation robust z-score -0.57; nuclear/cytoplasmic p65 ratio, rep 1 = 1.42; nuclear/cytoplasmic p65 ratio, rep 2 = 1.52; low cell count flag enough cells to score.
Knock-down of Emx1 (empty spiracles homeobox 1) [SID315466497] gave: p65 translocation robust z-score -0.71; nuclear/cytoplasmic p65 ratio, rep 1 = 1.41; nuclear/cytoplasmic p65 ratio, rep 2 = 1.24; low cell count flag enough cells to score.
Against Mptx1 (mucosal pentraxin 1) [SID315472342] the deposit lists p65 translocation robust z-score -0.49; nuclear/cytoplasmic p65 ratio, rep 1 = 1.37; nuclear/cytoplasmic p65 ratio, rep 2 = 1.18; low cell count flag enough cells to score.
Knock-down of Cpt1a (carnitine palmitoyltransferase 1a, liver) [SID315466099] gave: p65 translocation robust z-score -1.29; nuclear/cytoplasmic p65 ratio, rep 1 = 1.31; nuclear/cytoplasmic p65 ratio, rep 2 = 1.2; low cell count flag enough cells to score.
For Mrpl12 (mitochondrial ribosomal protein L12) [SID315471431] the deposit lists p65 translocation robust z-score -1.18; nuclear/cytoplasmic p65 ratio, rep 1 = 1.67; nuclear/cytoplasmic p65 ratio, rep 2 = 1.35; low cell count flag enough cells to score.
